From the supplement of paper PMC3334620
Whole data set: some 33,000 sequences, median “E-score (-0.5 to 0.5)” near -0.0059, cut for the highest 2% near 0.26. The list shows a part of the results.

target: T1, Cin5 (UniProt P40917); assay: PBM E-score (8-mer binding enrichment) (E-score (-0.5 to 0.5)); higher = stronger / more preferred TF binding; conditions: protein concentration: 100 nM; construct: GST-full length
T1 sequence: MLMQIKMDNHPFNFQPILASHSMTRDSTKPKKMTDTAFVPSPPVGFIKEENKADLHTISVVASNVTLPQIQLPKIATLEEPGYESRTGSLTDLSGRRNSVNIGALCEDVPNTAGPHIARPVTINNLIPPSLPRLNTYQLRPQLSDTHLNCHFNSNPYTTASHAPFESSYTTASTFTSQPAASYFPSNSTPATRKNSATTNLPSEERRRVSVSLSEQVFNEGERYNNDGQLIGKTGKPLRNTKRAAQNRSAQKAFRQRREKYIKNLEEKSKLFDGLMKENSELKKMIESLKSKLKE
Protocol: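 Universal 'all 10-mer' protein binding microarrays (Agilent AMADID 015681) probed with GST-tagged S. cerevisiae TFs (full-length or DBD) made by in vitro transcription/translation (PURExpress), about 100-200 nM. Bound TF was detected with fluorescent anti-GST. Each ungapped 8-mer (which stands for itself and its reverse complement) is scored by the PBM enrichment score (E-score), a modified Wilcoxon-Mann-Whitney statistic from -0.5 to +0.5, computed with the Universal PBM Analysis Suite. Scale: above 0.35 generally sequence-specific binding.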

Sequence	PBM E-score
AAGATGCT	0.0346
GCGACAGC	-0.171
CCAATCCA	-0.0865
ACTCCAGC	-0.192
CCCGTCCG	-0.161
CCTCGACG	-0.239
CGGCCCAG	-0.324
ACCGTCAT	0.0288
ACCACTAG	0.00962
CAGGGGTA	-0.122
CGCTAGCG	-0.168
AACCTTGT	-0.25
TCTTCCCA	-0.177
TACCGATA	-0.00738
CAATTTTA	0.176
AGGGTTGG	0.00389
AATTGTCT	0.189
GCCTCAGA	-0.125
CAACCCCG	-0.0495
CGAACTCC	-0.0155
GCCTATAA	-0.0026
GCGGACAC	-0.0603
AACCCAGC	-0.0502
AAAGCTGG	-0.0777
GTGTCAAC	-0.157

Sequence	PBM E-score
AGAATTTG	-0.04
CACAGTCG	-0.2
ATGCAACA	0.0593
AACCAGGG	-0.107
TATATCCA	0.197
GTAGGAAA	-0.0682
GCTCCGTA	-0.0277
ATATATAC	0.316
AGCTCCCG	-0.36
CATTCAAA	0.209
ACGATCAG	0.00253
CTGAGCCA	-0.0218
TGAAAGCA	0.14
AACATCTC	-0.0251
GCTCCAAC	0.0634
GTAACCTA	0.142
AAACTTTG	0.0632
AACGAAAC	0.176
GGCGTCAC	-0.0205
GGGCCCTA	-0.277
CTTCCACA	-0.0959
ATCGCCAC	0.23
AGGATTAC	0.225
CCTAAAAC	-0.151
TACTCATA	0.0992

Sequence	PBM E-score
ATGTTAAG	0.06
GAAATCCC	0.025
ACGAGCTA	-0.125
GGTCTGGA	-0.172
CTTGATAC	-0.109
GAGCACTC	-0.151
GGACACCA	0.0677
CAGGCGCC	-0.114
AAGCGCAC	0.00726
GCCATAAC	-0.0557
ACGGGTAT	0.0916
CAACATCG	0.136
GGCAACTA	0.0726
GCTTTACA	-0.0427
ACATAGGG	-0.135
CGGATCAG	-0.0152
GATAAACA	0.121
CTCGTTAA	-0.0492
AATTCGGA	0.163
GGCGTCCA	-0.184
CAACGTTG	0.0938
ATCTTTGC	0.0911
ACGTTTAA	0.125
GCAAACAA	0.252
AGTCAAAC	-0.196

Sequence	PBM E-score
CGAGGCTA	-0.124
CAAGTAAC	0.143
CAACTAAA	0.142
AACGAGTT	-0.118
GCCATCAC	-0.0665
CCCATTGA	-0.05
ATGTATGA	0.189
GCACTCTA	0.0406
AGAATACT	0.154
AACTAGTA	0.123
AAGTGTCC	-0.0989
AGCCTTGG	-0.028
CAACCAGA	0.0831
CCCAGAAG	-0.167
TATGAATA	0.197
AGTACCTA	0.103
CACTTTCA	-0.105
AGTTAACA	0.175
GTAAACAC	0.0469
GCATGACC	-0.135
GACCGTCA	-0.203
AACAGCAT	0.0952
CCATACCG	0.13
ATAGGGCA	-0.0914
CGTGCACA	-0.132

Sequence	PBM E-score
AGTTCGAC	-0.0444
AATGACCA	0.169
TCGGAAAA	0.164
GCTCCGCA	-0.16
ATGCATTC	0.163
CCCTCGAA	-0.161
GCAACTTA	0.105
GTGCTAAA	0.00722
ACCACTAC	-0.0107
CATAGCCG	0.0425
CCAGGGCA	-0.165
CCCAGGAG	-0.259
ACGGGATA	0.178
ATAAGGTC	0.13
AGTACTTA	-0.00452
AGCCAACG	-0.115
GACATATC	0.185
AGCGAACT	0.0556
CCTCGAGC	0.146
CAGAACAA	0.24
AGGGTGCG	-0.241
CGGGTCCA	-0.261
CCGCGCGG	0.307
ACAATACA	0.144
TTAACAAA	0.111

Sequence	PBM E-score
ACCAATAC	0.104
AGAGAGCA	-0.163
CGATACAA	0.181
CACAAATA	0.161
GCGTCGCA	-0.162
TCCCGCGA	-0.0676
GAGATATC	0.0943
ACTTATGC	0.0453
CAAAACTC	0.0756
GGCGAACC	-0.0678
CGCCGTAG	-0.174
GCCCGCTA	-0.341
CGAATTAC	0.0723
TGATGACA	0.105
CCCCATTC	-0.064
GAAACTGC	-0.14
TAATCATA	0.326
CGAGTTCC	0.0721
ATGCCACA	0.056
GGAGGTAC	-0.161
AGGAGCGG	-0.27
AAGGCCAC	-0.132
CCACCAGC	-0.0851
GACGCCGA	0.0841
GCCGGGAC	-0.266

Looked up above:
AGGAGCGG – PBM E-score: -0.27
GCATGACC – PBM E-score: -0.135
ACCACTAG – PBM E-score: 0.00962
CCTCGAGC – PBM E-score: 0.146

(cont.)

Sequence	PBM E-score
CAGGGCGG	-0.207
AACAACGA	0.0177
GCGGTCAC	-0.155
AGGTCACA	-0.0344
AATGACAA	0.243
TAGGCGAA	0.0125
AGGACCTA	0.0838
CGCAGGCG	-0.283
ACGAGACC	-0.0255
CCTCGTAA	0.249
AGCGATAG	-0.127
CCATGTTA	0.125
AACTTCTA	-0.00178
ACAGAGAG	-0.112
TAATACCA	0.279
AGCGTCGG	-0.0408
CCAGTTTA	0.0208
ATAGCAAC	0.18
AAGAGGGA	-0.178
TCGCCGCA	-0.0487
CGACGCAA	-0.119
AGGTGTGA	-0.0127
AGAGACGG	-0.151
AGTCTGTC	-0.156
ACTAGTGG	0.134

Sequence	PBM E-score
AAAGATCT	-0.0862
TACTTATA	0.0465
TAATTTGA	0.0255
CATGTCGA	-0.0282
AAACCTTT	-0.155
CGCATCAC	-0.11
ATACGTTG	0.0912
TCCGGCCA	-0.131
ATCTCGCC	0.0516
TATAGCCA	0.111
CGGCAGTC	0.0575
CGGCGGCA	-0.214
CCAGTTCC	0.0366
AACCAATT	0.221
AAGCTAGT	0.133
CTTTGAAA	-0.0167
TCAGTCCA	-0.312
GCTGTCCA	-0.0158
ATCAATAA	0.158
CGCTGCGC	-0.204
AAGTCGAA	-0.0375
CGTCAAAC	-0.105
AACCGCTA	0.0639
GAACATCC	0.0789
CCCATACC	0.0984

An excerpt of these results, bar-delimited:
Sequence | PBM E-score
TCAGTCCA | -0.312
GCTGTCCA | -0.0158

Following part.

Sequence	PBM E-score
GACGGCGC	-0.118
AACTAGAT	0.0382
AGCGCAAA	0.125
GTGCTAGA	-0.0787
GGAAAAAC	0.194
GGCATTCA	0.0441
GCAGTGAC	-0.0501
CACGCGTA	0.0157
CTGTACCA	-0.0889
AATGCTGC	0.0801
ATGACGTG	0.191
ACGAAGCC	-0.0831
GACCACGA	-0.0244
TCTATGCA	-0.0269
ACACTAAG	-0.092
GCCACGCA	-0.264
AAGTGTGA	-0.0482
CCGTACAC	-0.0633
CAAGGGGG	-0.482
